Reference: PubChem BioAssay AID743121 (NCATS, 2013)

Test: 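Knock-downs that sensitise breast cancer cells to camptothecin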 (primary screen)
Cell system: MDA-MB-231 cells, a human breast cancer line
Knock-down reagent: single siRNA against human genes, 20 nM siRNA (0.8 pmol per well)
Timing: 120 h (drug added 48 h after transfection, read 72 h later)
Treatment: camptothecin 20 nM (about EC30) for 72 h; vehicle 0.1% DMSO in parallel plates
Detection: 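CellTiter-Glo ATP signal, scaled to control siRNA as percent viability; sensitisation given as log2 of untreated divided by camptothecin-treated viability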
Scale: log2 vehicle/camptothecin viability: higher = stronger sensitisation to camptothecin
Rule for the call: 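Active genes have an RSA gene-level p-value below 0.001, computed from the ratios of their separate siRNAs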
This is a random part of about 26,000 deposited reagents. 167 of all reagents (0.63%) were called active. 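Calls are per gene from RSA p-values that are not deposited; an individual active-marked siRNA can sensitise only weakly.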 Unmarked entries are inactive. The numbers tell different reagents against one gene apart. Further read-outs or replicates are left out here. No sequences are given here.

MGST1 (microsomal glutathione S-transferase 1) #1 scored log2 vehicle/camptothecin viability -0.0311.
Against MGST1 (microsomal glutathione S-transferase 1) #2, the values are log2 vehicle/camptothecin viability -0.214.
MGST1 (microsomal glutathione S-transferase 1) #3 showed log2 vehicle/camptothecin viability 0.121.
MGST1 (microsomal glutathione S-transferase 1) #4 scored log2 vehicle/camptothecin viability -0.16.
MDGA1 (MAM domain containing glycosylphosphatidylinositol anchor 1) #1 scored log2 vehicle/camptothecin viability -0.292.
MDGA1 (MAM domain containing glycosylphosphatidylinositol anchor 1) #2 gave log2 vehicle/camptothecin viability -0.1.
Depletion of MDGA1 (MAM domain containing glycosylphosphatidylinositol anchor 1) #3 resulted in: log2 vehicle/camptothecin viability -0.225.
For MDGA1 (MAM domain containing glycosylphosphatidylinositol anchor 1) #4 the deposit lists log2 vehicle/camptothecin viability 0.926.
With knock-down of FBXL19 (F-box and leucine rich repeat protein 19) #1 the results were log2 vehicle/camptothecin viability -0.0669.
Silencing of FBXL19 (F-box and leucine rich repeat protein 19) #2 gave: log2 vehicle/camptothecin viability -0.307.
With knock-down of FBXL19 (F-box and leucine rich repeat protein 19) #3, the record shows log2 vehicle/camptothecin viability -0.192.
Against PKN3 (protein kinase N3) #1, the values are log2 vehicle/camptothecin viability -0.139.
After knock-down of PKN3 (protein kinase N3) #2, the record shows log2 vehicle/camptothecin viability 0.143.
PKN3 (protein kinase N3) #3 gave log2 vehicle/camptothecin viability -0.0526.
Depletion of PKN3 (protein kinase N3) #4 came out at: log2 vehicle/camptothecin viability -0.00248.
Depletion of BAG4 (BAG cochaperone 4) #1 came out at: log2 vehicle/camptothecin viability -0.116.
After knock-down of BAG4 (BAG cochaperone 4) #2 the results were log2 vehicle/camptothecin viability -0.113.
Silencing of BAG4 (BAG cochaperone 4) #3 gave: log2 vehicle/camptothecin viability -0.318.
With knock-down of BAG4 (BAG cochaperone 4) #4 the results were log2 vehicle/camptothecin viability -0.364.
After knock-down of PRICKLE1 (prickle planar cell polarity protein 1) #1 the results were log2 vehicle/camptothecin viability -0.139.
For PRICKLE1 (prickle planar cell polarity protein 1) #2, the values are log2 vehicle/camptothecin viability 0.00401.
Knock-down of PRICKLE1 (prickle planar cell polarity protein 1) #3 came out at: log2 vehicle/camptothecin viability 0.117.
Knock-down of PRICKLE1 (prickle planar cell polarity protein 1) #4 came out at: log2 vehicle/camptothecin viability -0.346.
Knock-down of CDKL4 (cyclin dependent kinase like 4) #1 gave: log2 vehicle/camptothecin viability -0.675.
After knock-down of CDKL4 (cyclin dependent kinase like 4) #2 the results were log2 vehicle/camptothecin viability -0.167.
For CDKL4 (cyclin dependent kinase like 4) #3, the entry reads log2 vehicle/camptothecin viability -0.197.
Silencing of CDKL4 (cyclin dependent kinase like 4) #4 came out at: log2 vehicle/camptothecin viability 0.0024.
TAPT1 (transmembrane anterior posterior transformation 1) #1 gave log2 vehicle/camptothecin viability 0.308.
After knock-down of TAPT1 (transmembrane anterior posterior transformation 1) #2, the screen gave log2 vehicle/camptothecin viability -0.124.
Depletion of TAPT1 (transmembrane anterior posterior transformation 1) #3 resulted in: log2 vehicle/camptothecin viability 0.0335.
Silencing of TAPT1 (transmembrane anterior posterior transformation 1) #4 came out at: log2 vehicle/camptothecin viability 0.273.
CNOT4 (CCR4-NOT transcription complex subunit 4) #1 gave log2 vehicle/camptothecin viability 0.293.
Against CNOT4 (CCR4-NOT transcription complex subunit 4) #2, the values are log2 vehicle/camptothecin viability 0.0825.
Silencing of CNOT4 (CCR4-NOT transcription complex subunit 4) #3 resulted in: log2 vehicle/camptothecin viability 0.262.
Depletion of CNOT4 (CCR4-NOT transcription complex subunit 4) #4 came out at: log2 vehicle/camptothecin viability -0.0763.
Depletion of PLEK (pleckstrin) #1 came out at: log2 vehicle/camptothecin viability -0.656.
Silencing of PLEK (pleckstrin) #2 resulted in: log2 vehicle/camptothecin viability 0.716.
Against PLEK (pleckstrin) #3, the entry reads log2 vehicle/camptothecin viability -0.0651.
Knock-down of CCR10 (C-C motif chemokine receptor 10) #1 gave: log2 vehicle/camptothecin viability -0.369.
Against CCR10 (C-C motif chemokine receptor 10) #2, the values are log2 vehicle/camptothecin viability -0.407.
CCR10 (C-C motif chemokine receptor 10) #3 gave log2 vehicle/camptothecin viability 0.205.
For CCR10 (C-C motif chemokine receptor 10) #4, the entry reads log2 vehicle/camptothecin viability -0.502.
For TRIML1 (tripartite motif family like 1) #1 the deposit lists log2 vehicle/camptothecin viability -0.138.
With knock-down of TRIML1 (tripartite motif family like 1) #2, the screen gave log2 vehicle/camptothecin viability -0.105.
Against TRIML1 (tripartite motif family like 1) #3 the deposit lists log2 vehicle/camptothecin viability 0.272.
Silencing of TRIML1 (tripartite motif family like 1) #4 resulted in: log2 vehicle/camptothecin viability -0.41.

Taken from above:
For “log2 vehicle/camptothecin viability”, TRIML1 (tripartite motif family like 1) #4 has -0.41
PLEK (pleckstrin) #2, log2 vehicle/camptothecin viability = 0.716
For “log2 vehicle/camptothecin viability”, CDKL4 (cyclin dependent kinase like 4) #1 has -0.675
Entry of TRIML1 (tripartite motif family like 1) #2 in “log2 vehicle/camptothecin viability”: -0.105
PKN3 (protein kinase N3) #3, log2 vehicle/camptothecin viability = -0.0526
Entry of FBXL19 (F-box and leucine rich repeat protein 19) #1 in “log2 vehicle/camptothecin viability”: -0.0669
